# In patent US20250270319A1:
# No constants are given. Whether binding was seen depends on the method and setting. Binding can be weak; no strength is given.
# Legend:
# [1] = molecular target: recombinant cynomolgus CD33 protein (NovoProtein) (cynomolgus); test: ELISA, plate coated with recombinant CD33
# [2] = molecular target: recombinant cynomolgus CD33 protein (NovoProtein) (cynomolgus); test: ELISA, plate coated with recombinant cynomolgus CD33, HRP anti-human IgG, TMB, A650
binding [1],binding [2],Binder
binds,binds,"anti-CD33 antibody 6C7H47 (antibody, V domains shown) VH: EVQLVESGGGLVQPGGSLRLSCAGSGFTFSNYEMNWVRQAPGKGLEWVAEIRLKSNNYVTNYAASVKGRFTISRDDSKNSVYLQMNSLKTEDTGVYYCTRAGYYVPFAYWGQGTLVTVSS VL: QLMLTQSPSASASLGASVKLTCTLSSQHSTYTIEWYQQQPGKGPRYLMELKKEGSHSTGDGIPDRFSGSSSGAERYLTISSLQSEDEADYYCGVGHTIKEQFVYEFGGGTKLTVL"
binds,binds,"anti-CD33 antibody 6C7H54 (antibody, IgG1, V domains shown) VH: EVQLVESGGGLVQPGGSLRLSCAGSGFTFSNYEMNWVRQAPGKGLEWVAEIRLKSNNYVTNYAASVKGRFTISRDDSKNSVYLQMNSLKTEDTGVYYCTRAGYYVPFAYWGQGTLVTVSS VL: QLMLTQSPSASASLGASVKLTCTLSSQHSTYTIEWYQQQPGKGPRYLMELKKEGSHSTGDGIPDRFSGSSSGAERYLTISSLQSEDEADYYCGVGHTIKEQFVYVFGGGTKLTVL"
binds,–,"anti-CD33 antibody 6C7H37 (antibody, V domains shown) VH: EVQLVESGGGLVQPGGSLRLSCAASGFTFSEYAMLWVRQAPGKGLEWVGEIRLKSNNYVTNYAASVKGRFTISRDDSKNSVYLQMNSLKTEDTGVYYCTRAGYYVPFTYWGQGTLVTVSS VL: QLMLTQSPSASASLGASVKLTCTLSSQHSTYTIEWYQQQPGKGPRYLMELKKEGSHSTGDGIPDRFSGSSSGAERYLTISSLQSEDEADYYCGVGHTIKEQFVYVFGGGTKLTVL"
binds,–,"anti-CD33 antibody 6C7H38 (antibody, V domains shown) VH: EVQLVESGGGLVQPGGSLRLSCAASGFTFSEYAMLWVRQAPGKGLEWVGEIRLKSNNYVTNYAASVKGRFTISRDDSKNSVYLQMNSLKTEDTGVYYCTRAGYYVPFTYWGQGTLVTVSS VL: QPMLTQSPSASASLGASVKLTCTLSSQHSTYTIEWYQQQPGKGPRYLMELKKEGSHSTGDGIPDRFSGSSSGAERYLTISSLQSEDEADYYCGVGLTIKEQFVYVFGGGTKLTVL"
binds,binds,"anti-CD33 antibody 6C7H48 (antibody, V domains shown) VH: EVQLVESGGGLVQPGGSLRLSCAGSGFTFSNYEMNWVRQAPGKGLEWVAEIRLKSNNYVTNYAASVKGRFTISRDDSKNSVYLQMNSLKTEDTGVYYCTRAGYYVPFAYWGQGTLVTVSS VL: QPMLTQSPSASASLGASVKLTCTLSSQHSTYTIEWYQQQPGKGPRYLMELKKEGSHSTGDGIPDRFSGSSSGAERYLTISSLQSEDEADYYCGVGLTIKEQFVYVFGGGTKLTVL"
–,binds,"anti-CD33 antibody 6C7H46 (antibody, V domains shown) VH: EVQLVESGGGLVQPGGSLRLSCAASGFTFSEYAMLWVRQAPGKGLEWVGEIRLKSNNYVTNYAASVKGRFTISRDDSKNSVYLQMNSLKTEDTGVYYCTRAGYYVPFAYWGQGTLVTVSS VL: QPMLTQSPSASASLGASVKLTCTLSSQHSTYTIEWYQQQPGKGPRYLMELKKEGSHSTGDGIPDRFSGSSSGAERYLTISSLQSEDEADYYCGVGLTIKEQFVYVFGGGTKLTVL"

# Further lines, the binder ahead of its results:
Binder,binding [1],binding [2]
"anti-CD33 6C7 chimeric antibody (antibody, V domains shown) VH: EVKLEESGGGLVQPGGSMKLSCVGSGFTFSNYCMNWVRQSPEKGLEWVAEIRLKSNNYVTNYVESVKGRFTISRDDSKSRVYLQMNNLRGEDTGFYYCTRDGYYVPFAYWGQGTLVTVSA VL: QLVLTQSSSASFSLGASAKLTCTLSSQHSTYTIEWYQQQPLKPPKYVMELKKDGSHSTGDGIPDRFSGSSSGADRYLSISNIQPEDEAIYICGVGDTIKEQFVYVFGGGTKVTVL",binds,binds
"anti-CD33 antibody 6C7H52 (antibody, V domains shown) VH: EVQLVESGGGLVQPGGSLRLSCAASGFTFSEYAMLWVRQAPGKGLEWVGEIRLKSNNYVTNYAASVKGRFTISRDDSKNSVYLQMNSLKTEDTGVYYCTRAGYYVPFAYWGQGTLVTVSS VL: QLMLTQSPSASASLGASVKLTCTLSSQHSTYTIEWYQQQPGKGPRYLMELKKEGSHSTGDGIPDRFSGSSSGAERYLTISSLQSEDEADYYCGVGHTIKEQFVYVFGGGTKLTVL",binds,binds
"anti-CD33 antibody 6C7H5 (antibody, V domains shown) VH: EVQLVESGGGLVQPGGSLRLSCAGSGFTFSNYCMNWVRQAPGKGLEWVAEIRLKSNNYVTNYAASVKGRFTISRDDSKNSVYLQMNSLKTEDTGVYYCTRDGYYVPFAYWGQGTLVTVSS VL: QLVLTQSPSASASLGASVKLTCTLSSQHSTYTIEWYQQQPEKGPRYLMELKKDGSHSTGDGIPDRFSGSSSGAERYLTISSLQSEDEADYYCGVGDTIKEQFVYVFGGGTKLTVL",binds,binds
"anti-CD33 antibody 6C7H41 (antibody, V domains shown) VH: EVQLVESGGGLVQPGGSLRLSCAASGFTFSEYDMLWVRQAPGKGLEWVGEIRLKSNNYVTNYAASVKGRFTISRDDTKNSVYLQMNSLKTEDTGVYYCTRAGYYVPFAYWGQGTLVTVSS VL: QLMLTQSPSASASLGASVKLTCTLSSQHSTYTIEWYQQQPGKGPRYLMELKKEGSHSTGDGIPDRFSGSSSGAERYLTISSLQSEDEADYYCGVGHTIKEQFVYVFGGGTKLTVL",–,binds
"anti-CD33 antibody 6C7H36 (antibody, V domains shown) VH: EVQLVESGGGLVQPGGSLRLSCAASGFTFSEYAMLWVRQAPGKGLEWVGEIRLKSNNYVTNYAASVKGRFTISRDDSKNSVYLQMNSLKTEDTGVYYCTRAGYYVPFTYWGQGTLVTVSS VL: QLMLTQSPSASASLGASVKLTCTLSSQHSTYTIEWYQQQPGKGPRYLMELKKEGSHSTGDGIPDRFSGSSSGAERYLTISSLQSEDEADYYCGVGHTIKEQFVYEFGGGTKLTVL",binds,binds
